The values that follow come from the supplement of paper PMC6411743.

± gives the standard deviation of the averaged measurements. Some of the results follow.

The target in this test is T1, E9PNW4 and related entries (UniProt P13987).
T1 sequence (whole entry): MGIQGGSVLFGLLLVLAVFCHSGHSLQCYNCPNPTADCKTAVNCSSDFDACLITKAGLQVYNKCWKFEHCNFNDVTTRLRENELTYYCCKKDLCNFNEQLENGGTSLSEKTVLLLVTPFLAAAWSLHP
Nature of the test: NP40-soluble protein abundance relative to vehicle (solubility fold change) (ratio); higher = more soluble protein in presence of GTP. Here is the method:
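Solubility proteome profiling in Jurkat crude lysate. Lysate was treated with Mg-GTP (0.1-10 mM) for 10 min at room temperature and 3 min at 37 °C, then solubilised with 0.8% NP40 and benzonase, followed by ultracentrifugation. Proteins were quantified by TMT10 LC-MS/MS; the value is the NP40-soluble abundance relative to the NP40-processed vehicle, from 3 independent experiments.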

For the compound `Nc1nc2c(ncn2[C@@H]2O[C@H](COP(=O)(O)OP(=O)(O)OP(=O)(O)O)[C@@H](O)[C@H]2O)c(=O)[nH]1` [guanosine triphosphate], the NP40-soluble protein abundance is, setting by setting: (concentration: 0.1mM) 0.823 ± 0.18; (concentration: 0.5mM) 0.829 ± 0.19; (concentration: 1mM) 0.834 ± 0.16; (concentration: 2mM) 0.825 ± 0.15; (concentration: 4mM) 0.875 ± 0.2; (concentration: 6mM) 0.871 ± 0.21. Also, the NP40-soluble protein abundance reads like this: (concentration: 8mM) 0.825 ± 0.15; (concentration: 10mM) 0.9 ± 0.2.
